Results from publication PMC11254720.
Results are given in words; binding and its absence hold for the method and conditions named. In cells and extracts the contact can be indirect. Some entries that bind do so weakly or less than the wild type.

Chains of the proteins cited; added tags and fusions are not shown.
UniProt P54252: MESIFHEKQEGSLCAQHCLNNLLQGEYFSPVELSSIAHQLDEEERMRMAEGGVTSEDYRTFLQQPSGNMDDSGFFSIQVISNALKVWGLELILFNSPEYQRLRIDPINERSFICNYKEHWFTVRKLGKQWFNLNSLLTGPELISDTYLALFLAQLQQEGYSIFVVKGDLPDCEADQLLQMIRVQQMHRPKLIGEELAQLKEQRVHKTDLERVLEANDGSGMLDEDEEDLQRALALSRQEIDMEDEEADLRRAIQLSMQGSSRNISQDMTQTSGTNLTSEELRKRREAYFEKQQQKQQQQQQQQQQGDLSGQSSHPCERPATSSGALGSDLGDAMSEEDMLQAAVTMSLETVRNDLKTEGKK

Columns and labels:
[1] = molecular target: Flag-Galectin-9-human (human) (UniProt O00182); experiment: co-IP; transiently co-transfected HEK293/HEK293T cells; RIPA lysis buffer; immunoprecipitation with protein-G sepharose, five washes with PBS, Western blotting
[2] = molecular target: Galectin-9 (endogenous, HCT116) (human (endogenous in HCT116)) (UniProt O00182); experiment: co-IP; endogenous proteins of HCT116 cells; immunoprecipitation with anti-Galectin-9, normal rabbit IgG as control; RIPA lysis buffer; Western blotting for ATXN3

| binding [2] | Substance | binding [1] |
| --- | --- | --- |
| – | Myc-ATXN3 (from UniProt P54252 1-361) (enzyme) | binds |
| binds | ATXN3 (endogenous, HCT116) (from UniProt P54252 1-361) (enzyme) | – |
